This experiment has as its target T1, mouse Nat2 (Mus musculus, UniProt P50295).
T1 construct: The mouse Nat2 open-reading frame [22] was sub-cloned into pET28b(+); hexa-histidine tag (His-tag, from pET28b(+)) (N, cleaved yes); made in house; host or cells: Escherichia coli Rosetta(DE3)pLysS
T1 sequence (P50295 1-290): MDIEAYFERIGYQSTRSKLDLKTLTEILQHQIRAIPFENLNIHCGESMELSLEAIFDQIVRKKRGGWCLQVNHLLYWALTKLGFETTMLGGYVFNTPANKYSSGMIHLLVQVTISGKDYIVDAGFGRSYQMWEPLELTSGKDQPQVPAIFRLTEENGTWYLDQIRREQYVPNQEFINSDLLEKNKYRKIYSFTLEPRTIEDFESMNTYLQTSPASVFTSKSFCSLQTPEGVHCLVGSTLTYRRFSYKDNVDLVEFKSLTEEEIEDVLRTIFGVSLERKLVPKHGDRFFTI
Description: Inhibition of mouse Nat2 acetylation of PABA (colorimetric DMAB assay). In kind it is biochemical. The conditions noted are these: xenobiotic oestrogens; recombinant mouse Nat2 3 ng, PABA 75 μM, AcCoA 400 μM, 37 °C; read-out: IC50 mNAT2. Here is the method:
The rates of arylamine acetylation by NATs were determined colorimetrically as previously described, but with minor modifications. Each assay contained the enzyme, arylamine substrate (see each figure legends for concentrations) and AcCoA (400 μM) in a total volume of 100 μL in assay buffer (20 mM Tris–HCl (pH 8.0), 1 mM DTT). Initially, the enzyme and substrate mixtures were pre-incubated at 25 °C for 5 min and AcCoA was added to start the reaction. The reaction was quenched using 20% (w/v) trichloroacetic acid (TCA) at different time intervals. The stopped reaction was centrifuged (16,000 × […], 10 min) to pellet the precipitated proteins. […] The absorption at 450 nm was measured with a Hitachi U-2001 UV–vis spectrophotometer, with the amount of residual substrate in the reaction was determined by comparison with a standard curve.
The inhibitory effect of steroids on the rate of acetylation of arylamines by mouse Nat2 was measured by using the colorimetric DMAB assay as described in Section 2. […] The colour was developed and measured as described in Section 2. The linear initial rate of reaction was determined and the percentage inhibition was calculated relative to the control activity measured without the inhibitor. All measurements were performed in triplicate and are expressed as mean ± standard deviation. *2% (v/v) ethanol **5% (v/v) DMSO used to dissolve the compounds in the assay.

The source of these data is article PMC2279149, “Mouse N-acetyltransferase type 2, the homologue of human N-acetyltransferase type 1” (Biochemical Pharmacology, 2008).

Each structure is given as a SMILES string.

As usually defined, the IC50 is the concentration needed to halve the response being measured.

In the case of `CC/C(=C(\c1ccccc1)c1ccc(OCCN(C)C)cc1)c1ccccc1` [Tamoxifen], the concentration for half-maximal inhibition (IC50) was determined as 57 ± 3 µM.
